The test can be described thus: qHTS Assay for Lipid Storage Modulators in Drosophila S3 Cells.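 For cell number change: cells counted by Cell Tracker Red CMTPX staining in the red channel.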 To be noted: BODIPY lipid droplet fluorescence, 18-24 h; for cell number change: measured here: cell count max response, cells fed with added oleic acid. In short, it runs like this:
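Drosophila S3 cells loaded with oleic acid (400 uM, as added) and compounds at several concentrations; lipid droplets imaged by 488-nm laser-scanning cytometry, 500–530 nm intensity and object ratio to cell channel. Percent activity normalized to 20 uM Triacsin C.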
(In qHTS, concentration-response curves come from the screen itself.)

Where [1] appears, read: measured here: lipid fluorescence (Fed channel) AC50, cells fed with added oleic acid.
Where [2] appears, read: measured here: cell number channel AC50, cells fed with added oleic acid.

The list shows a part of the results. Shown are side measurements of this screen, not its main read-out; they come without a call. Most of these compounds were active or inconclusive in the main read-out, so they are no random draw. Words in brackets tell the shape of the fitted curve; partial curves, single points and poor fits give uncertain potencies.

As a reminder, the AC50 is the midpoint of the concentration-response curve, whichever way the signal moves. Regarding `COc1ccccc1C(=O)OCC(=O)c1cccc([N+](=O)[O-])c1`, the cell number change was -19.7%. Moreover, the AC50 under setting [1] was 23.1 µM [falling, partial curve, poor fit].

Regarding `O=C(c1ccco1)N1CCN(C(=O)C2Cc3ccccc3CN2S(=O)(=O)c2ccc(F)cc2)CC1` (configuration not stated), the cell number change is -3.66%. Also, the AC50 under setting [2] is 0.82 µM [falling, full curve, poor fit].

On to `Cc1ccc(NC(=O)Cn2c(=O)n(Cc3ccco3)c(=O)c3ccccc32)c(C)c1`, for which the cell number change stood at 143%. Also, the AC50 under setting [2] is 0.0259 µM [rising, full curve, poor fit]. Further, under setting [1], the concentration at half-maximal activity (AC50) was 0.0651 µM [rising, full curve].

In the case of `COc1ccc(OC)c(NC(=O)NC2CCCc3ccccc32)c1` (configuration not stated), the cell number change amounted to 5.3%.

Take `CCOC(=O)N1CCN(C(c2ccc(F)cc2)c2sc3nc(C)nn3c2O)CC1` (configuration not stated): the cell number change came to 41.8%. In addition, the AC50 under setting [2] was 29.1 µM [rising, single point]. Moreover, the AC50 under setting [1] was 29.1 µM [rising, single point].

`Cc1ccc(NC(=S)NNC(=O)c2nn(C)c(C)c2Cl)cc1`: the cell number change worked out at 16%. Further, under setting [1], the AC50 was 29.1 µM [rising, single point].

In the case of `COc1ccc(N(C(=O)c2ccn[nH]2)C(C(=O)NC(C)(C)C)c2ccc(F)cc2)cc1` (configuration not stated), the cell number change is -16.5%.

Regarding `COC(=O)CSc1nnc(-c2cccnc2)n1C`, the cell number change was -15.5%.

Take `Cc1ccc(N(C(=O)c2csnn2)C(C(=O)NC2CCCCC2)c2ccncc2)cc1` (configuration not stated): the cell number change came out at 2.56%. For the same compound, the AC50 under setting [1] was 5.17 µM [rising, single point].

For `Cc1ccc(CNC(=O)C2CCCN2C(=O)NCc2ccccc2)cc1` (configuration not stated), the cell number change stood at 4.46%. Moreover, the AC50 under setting [2] is 0.82 µM [rising, full curve]. In addition, the AC50 under setting [1] was 0.651 µM [rising, full curve].

Regarding `COc1ccc(/C=C2\CCn3c2nc2ccccc2c3=O)cc1OC`, the cell number change came to 20%. In addition, the AC50 under setting [1] was 29.1 µM [falling, single point].

In the case of `CCOc1cc(Br)cc(/C=N/NC(=O)c2cccnc2)c1O`, under setting [1], the AC50 was 6.51 µM [rising, partial curve, poor fit].

As to `COc1ccc(C(C(=O)NC2CCCC2)N(CCO)C(=O)Cn2nnc(-c3ccc(C)o3)n2)cc1OC` (configuration not stated), the cell number change is -28.9%. Moreover, the AC50 under setting [1] was 14.1 µM [rising, single point].

For `COc1ccc(C2NC(=O)CCC2[N+](=O)[O-])c(OC)c1` (configuration not stated), the cell number change was 32.3%. Also, under setting [2], the AC50 was 0.82 µM [rising, full curve, poor fit]. In addition, under setting [1], the AC50 is 0.731 µM [rising, full curve].

As to `CC1=CC(C)(C)N(C(=O)CSc2nnc(C)s2)c2ccc(C)cc21`, the cell number change is -10.2%. For the same compound, the AC50 under setting [1] is 25.9 µM [falling, partial curve].

Take `CNC(=O)c1ccc(Oc2ccc(C(=O)NC)cc2)cc1`: the cell number change was -1.6%. The AC50 under setting [1] is 3.66 µM [rising, single point].

On to `COc1ccc(OC)c(CNS(=O)(=O)c2cc(-c3cc(C)no3)ccc2OC)c1`, for which the cell number change was -29.7%. The AC50 under setting [1] is 10.3 µM [falling, single point].

Turning to `CCOc1cc(C2C(C(=O)N3CCCCC3)=C(C)NC3=C2C(=O)CC(C)(C)C3)ccc1O` (configuration not stated), the cell number change is -19.5%. Moreover, the AC50 under setting [2] was 1.46 µM [falling, full curve, poor fit].

Turning to `CCCC(c1nnnn1CC1CCCO1)N1CCN(c2cc(Cl)ccc2C)CC1` (configuration not stated), the cell number change is -25.9%. Also, the AC50 under setting [2] was 0.206 µM [falling, full curve, poor fit].

In the case of `Cc1occc(=O)c1O`, the cell number change stood at 21.5%. Further, the AC50 under setting [1] was 4.61 µM [falling, full curve].

As to `CCN1CCN(CCCNC(=O)c2ccc(/C=C3/Sc4ccccc4N(Cc4ccccc4F)C3=O)cc2)CC1`, the cell number change was -27.3%. Further, the AC50 under setting [1] was 18.4 µM [falling, single point].

In the case of `Cc1csc(Sc2ccc([N+](=O)[O-])cc2C(=O)OCC(=O)NC2CCCC(C)C2C)n1` (configuration not stated), the cell number change was -23.6%.

Consider `CSc1nc(Sc2ccccc2Cl)c2ccccc2n1`, for which the AC50 under setting [1] was 0.651 µM [falling, single point].

Turning to `CC1CCN(C(=O)c2[nH]cnc2C(=O)NCC(=O)OC(C)(C)C)CC1`, the cell number change amounted to 9.88%. Also, the AC50 under setting [1] was 8.2 µM [rising, partial curve].

Consider `O=C1C=C(c2ccc(Cl)c(C(F)(F)F)c2)C[C@@H](c2ccc(F)cc2)C1`, for which the cell number change is -6.57%. Further, under setting [1], the AC50 was 6.51 µM [falling, single point].

On to `CCN(C(=O)CCc1nnc2ccc(N3CCC4(CC3)OCCO4)nn12)c1ccccc1`, for which the cell number change came to 11.3%.

As for `O=S(=O)(c1ccc(NCc2ccccc2)cc1)N1CCOCC1`, the cell number change was determined as 18.2%. In addition, the AC50 under setting [1] was 5.8 µM [rising, full curve, poor fit].

As to `CCc1nc(OCC(=O)c2ccccc2)c(C#N)c2c1COC(C)(C)C2`, the AC50 under setting [2] was 3.66 µM [rising, partial curve, poor fit] and the AC50 under setting [1] was 0.103 µM [rising, full curve, poor fit].

Regarding `CS/C(=C\[N+](=O)[O-])Nc1ccccc1`, the cell number change is -36.4%. The AC50 under setting [2] is 5.8 µM [falling, full curve]. For the same compound, under setting [1], the AC50 was 3.66 µM [falling, partial curve].

With `CC(=O)Nc1ccc(N(CC(O)Cn2c3ccccc3c3ccccc32)S(=O)(=O)c2ccc(C)cc2)cc1` (configuration not stated), the cell number change was 0.176%. Besides, the AC50 under setting [1] was 4.11 µM [rising, single point].

Regarding `C/C=C/C(=O)OCC(=O)Nc1cccc(Br)c1`, the cell number change is -15.7%.

As for `Cc1cccc(-c2nnc(SCC(=O)Nc3ncccn3)n2C)c1`, the cell number change turned out to be 10%. Besides, the AC50 under setting [1] was 2.06 µM [falling, partial curve].

For the compound `COc1cccc(NS(=O)(=O)c2ccc3c(c2)CCCN3C(C)=O)c1`, the cell number change was found to be 2.76%. Further, the half-maximal activity concentration (AC50) under setting [2] is 1.3 µM [rising, full curve]. Besides, the AC50 under setting [1] is 6.51 µM [rising, partial curve].

`O=C(O)[C@H]1CCCC[C@H]1C(=O)Nc1ccc(S(=O)(=O)N2CCOCC2)cc1`: the cell number change came to 19.2%. Besides, the AC50 under setting [1] was 6.51 µM [falling, single point].

As to `COc1ccc(CCOC(=O)CNC(=O)c2ccc(Cl)cc2Cl)cc1`, the cell number change was determined as 5.2%.

Regarding `Cc1[nH]n(-c2ccc([N+](=O)[O-])cc2)c(=O)c1C=NCCN1CCN(C(=O)c2ccc(F)cc2)CC1`, the cell number change is 11.1%. Moreover, under setting [1], the AC50 is 1.64 µM [rising, partial curve, poor fit].

As for `CCCCn1nc(C(=O)Nc2nc3c(s2)CCCC3)c2ccccc2c1=O`, the AC50 under setting [2] is 6.51 µM [rising, partial curve, poor fit].

Consider `COC(=O)c1c(C)[nH]c(C(=O)C(C)OC(=O)C2CC(=O)N(CCc3ccccc3)C2)c1C` (configuration not stated), for which the cell number change was -20%. Moreover, under setting [1], the AC50 is 32.6 µM [falling, partial curve, poor fit].

With `COCCN1CN=C(Nc2nc3ccccc3s2)NC1`, the cell number change was -20.2%. In addition, the AC50 under setting [1] is 6.51 µM [falling, partial curve, poor fit].

On to `CN1CCN(S(=O)(=O)c2cccc(C(=O)Oc3ccc(Br)cc3F)c2)CC1`, for which the cell number change is 38.7%.

In the case of `CCS(=O)(=O)NCC(c1ccco1)N1CCN(c2ccccc2F)CC1` (configuration not stated), the cell number change was -6.58%. Also, the AC50 under setting [1] was 10.3 µM [rising, partial curve].

With `C=CCSc1cc(C)nc2c(-c3ccc(Cl)cc3)c(C)nn12`, the cell number change is -4.55%.

For `Clc1cccc(N/N=C(\Cc2nc3ccccc3[nH]2)c2ccccc2)c1`, the cell number change was -54.3%. In addition, under setting [2], the AC50 was 16.4 µM [falling, single point]. Moreover, the AC50 under setting [1] is 16.4 µM [falling, single point].

In the case of `Cc1cccc(N(C(=O)c2snc(C(N)=O)c2N)C(C)C(=O)NCC2CCCO2)c1` (configuration not stated), the cell number change worked out at 29.4%. The AC50 under setting [2] was 4.61 µM [rising, full curve, poor fit]. Also, the AC50 under setting [1] is 8.2 µM [rising, single point].

Regarding `CN(C)C(/C=C/Nc1ccc([N+](=O)[O-])cc1)=C(C#N)C#N`, the cell number change was determined as 17.3%. The AC50 under setting [1] is 0.00461 µM [rising, full curve, poor fit].

As for `C=CCN1CCN(C(=O)CCc2ccccc2)CC1`, the cell number change stood at 8.24%. Besides, the AC50 under setting [1] is 5.17 µM [falling, single point].

In the case of `COc1ccc(S(=O)(=O)N2CCN(C3CCCC(C)C3)CC2)cc1` (configuration not stated), the cell number change was -3.17%. Also, under setting [2], the AC50 is 0.411 µM [rising, partial curve, poor fit].

As for `COCCc1nnc(NC(=O)C(C)C)s1`, the cell number change is -47.3%. Under setting [2], the AC50 is 29.1 µM [falling, single point]. Besides, under setting [1], the AC50 was 16.4 µM [falling, single point].

For the compound `O=C1c2ccccc2C(=O)N1CCCCSc1nnc2ccccn12`, the cell number change was -0.0698%.

In the case of `N#CCC(=O)Nc1ccc(C(=O)OCC(=O)Nc2cccc(C(F)(F)F)c2)cc1`, the cell number change was -19.9%.

For `Cc1nn(-c2ccccc2)c(N2CCCC2)c1/C=N/NC(=O)C1CC1`, the AC50 under setting [1] is 20.6 µM [rising, single point].

`CC(C)(C)n1nc2c(c1NC(=O)c1cc([N+](=O)[O-])ccc1Cl)CS(=O)(=O)C2`: the cell number change was -11.4%.

With `O=c1c2cc(-c3ccccc3)sc2nc2n1CCC2`, the cell number change was -10.8%.

On to `O=C(Oc1ccc(N2C(=O)C3C4CCC(C4)C3C2=O)cc1)c1ccco1` (configuration not stated), for which the cell number change stood at 3.24%.

As for `COc1ccc(C2C(C(=O)N3CCOCC3)CCC(=O)N2c2ccc(OC)cc2)cc1` (configuration not stated), the AC50 reads like this: under setting [2], 4.61 µM [rising, single point]; under setting [1], 1.64 µM [rising, partial curve, poor fit].

As for `CCCCN(C)C(=O)CNC(=O)c1nn(-c2ccc(OC)cc2OC)c(=O)c2ccccc12`, the cell number change came out at 40.5%. The AC50 under setting [2] is 29.1 µM [rising, single point].

Turning to `COc1cc2c(cc1OC)CN(C(=O)/C=C/c1cc(OC)c(OC)c(OC)c1)CC2`, the cell number change was -36.3%. Besides, the AC50 under setting [2] was 3.66 µM [falling, full curve, poor fit]. Besides, the AC50 under setting [1] was 3.26 µM [falling, full curve].

For `O=C(Cn1cnc(S(=O)(=O)N2CCCC2)c1)Nc1cccc(Br)c1`, the cell number change amounted to 5.7%. Further, the concentration at half-maximal activity (AC50) under setting [1] is 6.51 µM [rising, partial curve, poor fit].

Take `CCn1c(-c2cc(C3CC3)nc3ccccc23)n[nH]c1=S`: the cell number change amounted to 20%. Under setting [1], the AC50 was 5.17 µM [rising, full curve].

As to `Cc1cc(NC(=O)c2ccc3c(c2)OCO3)ccc1NC(=O)c1ccccc1`, the cell number change is 1.35%. For the same compound, under setting [1], the AC50 was 4.11 µM [falling, full curve].

The values are drawn from PubChem BioAssay AID2685 (National Center for Advancing Translational Sciences (NCATS), 2010).
